In the supplement of paper PMC8149375:

Legend:
Settings in all cases: treatment: drug alone; 5 days
[1] = test system: 786-O; test: GI50, drug alone; higher = less potent
Description: (§1)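 Primary HTS: 8 RCC cell lines treated with 8 doses (up to 10 uM) of each library drug alone for 5 days; viability read by CellTiter-Glo and normalised to DMSO. GI50 was fitted with XLfit (4-parameter), AUC is the area under the dose-response curve, and minimum viability is the lowest fraction of DMSO viability across doses.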

[2] = test system: ACHN; test: GI50, drug alone; higher = less potent
Description: as §1

[3] = test system: 769-P; test: GI50, drug alone; higher = less potent
Description: as §1

[4] = test system: CAKI-1; test: GI50, drug alone; higher = less potent
Description: as §1

[5] = test system: UO-31; test: GI50, drug alone; higher = less potent
Description: as §1

[6] = test system: SN12C; test: GI50, drug alone; higher = less potent
Description: as §1

[7] = test system: A498; test: GI50, drug alone; higher = less potent
Description: as §1

[8] = test system: TK-10; test: GI50, drug alone; higher = less potent
Description: as §1

[9] = test system: 786-O; test: minimum viability across doses, drug alone, relative to DMSO (fraction); higher = less growth inhibition
Description: as §1

[10] = test system: ACHN; test: as above
Description: as §1

[11] = test system: 769-P; test: as above
Description: as §1

[12] = test system: CAKI-1; test: as above
Description: as §1

[13] = test system: UO-31; test: as above
Description: as §1

[14] = test system: SN12C; test: as above
Description: as §1

[15] = test system: A498; test: as above
Description: as §1

[16] = test system: TK-10; test: as above
Description: as §1

[17] = test system: 786-O; test: AUC of dose-response viability curve, drug alone (arbitrary (AUC of normalised viability)); higher = less growth inhibition
Description: as §1

[18] = test system: ACHN; test: as above
Description: as §1

[19] = test system: 769-P; test: as above
Description: as §1

[20] = test system: UO-31; test: as above
Description: as §1

[21] = test system: SN12C; test: as above
Description: as §1

[22] = test system: A498; test: as above
Description: as §1

[23] = test system: TK-10; test: as above
Description: as §1

`Cc1ccccc1-n1c(Cn2nc(-c3cccc(O)c3)c3c(N)ncnc32)nc2cccc(C)c2c1=O` [PIK-294] was tested, and the “GI50, drug alone” value [1] was > 10 µM, the “GI50, drug alone” value [2] was > 10 µM and the “GI50, drug alone” value [3] was > 10 µM. For the same molecule, the “GI50, drug alone” value [4] was > 10 µM, the “GI50, drug alone” value [5] was > 10 µM and the “GI50, drug alone” value [6] was > 10 µM. For the same molecule, the “GI50, drug alone” value [7] was > 10 µM, the “GI50, drug alone” value [8] was > 10 µM and the “minimum viability across doses” value [9] was 0.689. The “minimum viability across doses” value [10] was 0.561, the “minimum viability across doses” value [11] was 0.882 and the “minimum viability across doses” value [12] was 0.598. The “minimum viability across doses” value [13] was 1.28, the “minimum viability across doses” value [14] was 0.897 and the “minimum viability across doses” value [15] was 0.845. The “minimum viability across doses” value [16] was 0.703, the “AUC of dose-response viability curve” value [17] was 2.77 and the “AUC of dose-response viability curve” value [18] was 3.28. The “AUC of dose-response viability curve” value [19] was 3.34, the “AUC of dose-response viability curve” value [20] was 5.65 and the “AUC of dose-response viability curve” value [21] was 3.47. For the same molecule, the “AUC of dose-response viability curve” value [22] was 3.98 and the “AUC of dose-response viability curve” value [23] was 3.21.
